PubChem BioAssay AID1159594 | NIAID | 2016
Test: 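Which core toll-like receptor signalling genes are needed for TNF promoter activation by Pam2CSK4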. Cell system: human THP-1 B5 reporter cells, PMA-differentiated into macrophage-like cells. Knock-down reagent: single siRNA against human genes. Time to read-out: 48 to 72 hours after siRNA transfection; ligand exposure 4 hours. Treatment: Pam2CSK4 (TLR2/6 agonist) stimulation for 4 hours before lysis; dose not given. Measurement: 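Robust z-score, relative to negative controls, of the firefly/renilla ratio from a TNF promoter reporter, after per-plate median/MAD scaling, mean of replicate screens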. Reading the numbers: TNF reporter z-score: higher = stronger TNF promoter reporter activity. Rule for the call: 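Active when the mean z-score across replicates is at or beyond ±1.5 in either direction, matching a depositor grade of 50 or higher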. Meaning of the calls: active = z-score beyond ±1.5 (either direction); inactive = z-score within ±1.5.
In all, the deposit lists 756 reagents; shown is a part drawn at random. 130 of all reagents (17%) count as active. 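Active calls cover both falls and rises of reporter activity; each row reflects one siRNA, not a gene-level verdict.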 Unmarked entries are inactive. The numbers tell different reagents against one gene apart. No sequences are given here. Not given: the amount of reagent.

| gene | siRNA no. | TNF reporter z-score, replicate mean |
| --- | --- | --- |
| CD180 (GeneID 4064) | 1 | -0.597 |
| CD180 (GeneID 4064) | 2 | -0.616 |
| CD180 (GeneID 4064) | 3 | 0.0612 |
| CD180 (GeneID 4064) | 4 | -0.0543 |
| CD180 (GeneID 4064) | 5 | -1.12 |
| CD180 (GeneID 4064) | 6 | 0.00491 |
| ITGAM (GeneID 3684) | 1 | 0.898 |
| ITGAM (GeneID 3684) | 2 | -1.64 (active) |
| ITGAM (GeneID 3684) | 3 | -0.46 |
| ITGAM (GeneID 3684) | 4 | -0.782 |
| ITGAM (GeneID 3684) | 5 | -0.526 |
| ITGAM (GeneID 3684) | 6 | 1.71 (active) |
| PELI1 (GeneID 57162) | 1 | 0.369 |
| PELI1 (GeneID 57162) | 2 | -0.259 |
| PELI1 (GeneID 57162) | 3 | 0.504 |
| PELI1 (GeneID 57162) | 4 | -0.873 |
| PELI1 (GeneID 57162) | 5 | 0.143 |
| PELI1 (GeneID 57162) | 6 | -0.425 |
| AKT3 (GeneID 10000) | 1 | 0.432 |
| AKT3 (GeneID 10000) | 2 | -0.139 |
| AKT3 (GeneID 10000) | 3 | -0.263 |
| AKT3 (GeneID 10000) | 4 | -1.74 (active) |
| AKT3 (GeneID 10000) | 5 | -0.628 |
| AKT3 (GeneID 10000) | 6 | -0.0999 |
| TAB1 (GeneID 10454) | 1 | -0.379 |
| TAB1 (GeneID 10454) | 2 | -0.692 |
| TAB1 (GeneID 10454) | 3 | -0.609 |
| TAB1 (GeneID 10454) | 4 | -1.85 (active) |
| TAB1 (GeneID 10454) | 5 | -1.2 |
| TAB1 (GeneID 10454) | 6 | -2.24 (active) |
| TLR7 (GeneID 51284) | 1 | 0.0564 |
| TLR7 (GeneID 51284) | 2 | 0.598 |
| TLR7 (GeneID 51284) | 3 | -0.0597 |
| TLR7 (GeneID 51284) | 4 | -0.747 |
| TLR7 (GeneID 51284) | 5 | -0.801 |
| TLR7 (GeneID 51284) | 6 | -0.573 |
| SIGIRR (GeneID 59307) | 1 | -0.257 |
| SIGIRR (GeneID 59307) | 2 | 0.638 |
| SIGIRR (GeneID 59307) | 3 | -0.95 |
| SIGIRR (GeneID 59307) | 4 | -1.35 |
| SIGIRR (GeneID 59307) | 5 | 0.959 |
| SIGIRR (GeneID 59307) | 6 | -0.795 |
| MYD88 (GeneID 4615) | 1 | -0.877 |
| MYD88 (GeneID 4615) | 2 | 0.0377 |
| MYD88 (GeneID 4615) | 3 | -2.16 (active) |
| MYD88 (GeneID 4615) | 4 | -0.51 |
| MYD88 (GeneID 4615) | 5 | 1.23 |
| MYD88 (GeneID 4615) | 6 | 1.58 (active) |
| REL (GeneID 5966) | 1 | -0.592 |
| REL (GeneID 5966) | 2 | -0.344 |
| REL (GeneID 5966) | 3 | -0.396 |
| REL (GeneID 5966) | 4 | -1.36 |
| REL (GeneID 5966) | 5 | -0.398 |
| REL (GeneID 5966) | 6 | 0.39 |
| AKT2 (GeneID 208) | 1 | -0.466 |
| AKT2 (GeneID 208) | 2 | 0.416 |
| AKT2 (GeneID 208) | 3 | -0.957 |
| AKT2 (GeneID 208) | 4 | 0.197 |
| AKT2 (GeneID 208) | 5 | 0.832 |
| AKT2 (GeneID 208) | 6 | 0.379 |
| IRAK1 (GeneID 3654) | 1 | -1.7 (active) |
| IRAK1 (GeneID 3654) | 2 | -2.35 (active) |
| IRAK1 (GeneID 3654) | 3 | -3.02 (active) |
| IRAK1 (GeneID 3654) | 4 | -0.458 |
| IRAK1 (GeneID 3654) | 5 | -3.72 (active) |
| IRAK1 (GeneID 3654) | 6 | -4.03 (active) |
| TNF (GeneID 7124) | 1 | 0.0503 |
| TNF (GeneID 7124) | 2 | -2.14 (active) |
| TNF (GeneID 7124) | 3 | -2.06 (active) |
| TNF (GeneID 7124) | 4 | -0.129 |
| TNF (GeneID 7124) | 5 | -1.89 (active) |
| TNF (GeneID 7124) | 6 | -3.23 (active) |

Next part; the last 12 above are carried over.
| gene | siRNA no. | TNF reporter z-score, replicate mean |
| --- | --- | --- |
| IRAK1 (GeneID 3654) | 1 | -1.7 (active) |
| IRAK1 (GeneID 3654) | 2 | -2.35 (active) |
| IRAK1 (GeneID 3654) | 3 | -3.02 (active) |
| IRAK1 (GeneID 3654) | 4 | -0.458 |
| IRAK1 (GeneID 3654) | 5 | -3.72 (active) |
| IRAK1 (GeneID 3654) | 6 | -4.03 (active) |
| TNF (GeneID 7124) | 1 | 0.0503 |
| TNF (GeneID 7124) | 2 | -2.14 (active) |
| TNF (GeneID 7124) | 3 | -2.06 (active) |
| TNF (GeneID 7124) | 4 | -0.129 |
| TNF (GeneID 7124) | 5 | -1.89 (active) |
| TNF (GeneID 7124) | 6 | -3.23 (active) |
| PTK2B (GeneID 2185) | 1 | 0.00176 |
| PTK2B (GeneID 2185) | 2 | -1.23 |
| PTK2B (GeneID 2185) | 3 | -0.858 |
| PTK2B (GeneID 2185) | 4 | -1.99 (active) |
| PTK2B (GeneID 2185) | 5 | -1.01 |
| PTK2B (GeneID 2185) | 6 | -0.514 |
| AKT1 (GeneID 207) | 1 | 0.843 |
| AKT1 (GeneID 207) | 2 | 0.842 |
| AKT1 (GeneID 207) | 3 | -2.57 (active) |
| AKT1 (GeneID 207) | 4 | -0.0187 |
| AKT1 (GeneID 207) | 5 | 0.337 |
| AKT1 (GeneID 207) | 6 | -0.981 |
| FOS (GeneID 2353) | 1 | -0.0564 |
| FOS (GeneID 2353) | 2 | 0.151 |
| FOS (GeneID 2353) | 3 | -2.58 (active) |
| FOS (GeneID 2353) | 4 | -0.675 |
| FOS (GeneID 2353) | 5 | 0.497 |
| FOS (GeneID 2353) | 6 | -0.988 |
| TLR3 (GeneID 7098) | 1 | -0.0442 |
| TLR3 (GeneID 7098) | 2 | -0.4 |
| TLR3 (GeneID 7098) | 3 | -0.371 |
| TLR3 (GeneID 7098) | 4 | -1.14 |
| TLR3 (GeneID 7098) | 5 | -0.497 |
| TLR3 (GeneID 7098) | 6 | -0.51 |
| TBKBP1 (GeneID 9755) | 1 | 1.26 |
| TBKBP1 (GeneID 9755) | 2 | -1.8 (active) |
| TBKBP1 (GeneID 9755) | 3 | -0.272 |
| TBKBP1 (GeneID 9755) | 4 | 0.436 |
| TBKBP1 (GeneID 9755) | 5 | -0.969 |
| TBKBP1 (GeneID 9755) | 6 | -0.528 |
| TRAF6 (GeneID 7189) | 1 | -3.75 (active) |
| TRAF6 (GeneID 7189) | 2 | -4.19 (active) |
| TRAF6 (GeneID 7189) | 3 | -6.12 (active) |
| TRAF6 (GeneID 7189) | 4 | -2.38 (active) |
| TRAF6 (GeneID 7189) | 5 | -4.02 (active) |
| TRAF6 (GeneID 7189) | 6 | -3.26 (active) |
| MAP2K4 (GeneID 6416) | 1 | -1.33 |
| MAP2K4 (GeneID 6416) | 2 | -1.57 (active) |
| MAP2K4 (GeneID 6416) | 3 | -0.27 |
| MAP2K4 (GeneID 6416) | 4 | -0.0765 |
| MAP2K4 (GeneID 6416) | 5 | -0.202 |
| MAP2K4 (GeneID 6416) | 6 | 0.0929 |
